Experimental data published in US10695406B2, “Modulation of cellular stress using a B-cell oxidative and/or endoplasmic reticulum stress inhibitor and a targeting agent” (THE UNIVERSITY OF QUEENSLAND, priority 2014, dated 2020).
“Also recorded” adds a separate entry of the source.

System: MIN6N8 murine β-cells
Test: ER stress (ERAI reporter of Xbp1-splicing / Xbp1 splicing) in MIN6N8 β-cells
Type: cell-based
Settings: pharmacological inhibitors and siRNA; for Excluded Transcription Factors/Kinases: not required for the cytokine to induce ER stress; for Required Transcription Factors/Kinases: required for the cytokine to induce ER stress
Protocol: MIN6N8 cells are maintained in line with standard protocols. Cells are transfected with either the ERAI reporter plasmid (F-XBP1ΔDBD-Venus), or the ATF6-GFP plasmid (ADGENE), using LIPFECTAMINE 2000 according to the manufacturer's instructions.
On induction of ER stress, splicing of […] mRNA by IRE1a results in the translation of Venus, but not an active form of XBP1. Fluorescence was measured (excitation: 485 nm; emission: 520 nm) using the POLARstar Omega plate reader and cells were treated 48 h after transfection. The results are normalized with Gapdh expression as fold of vehicle-treated control (Con) cells.
Activation of ATF6 was assessed as follows: the area in pixels per square millimeter co-stained ATF6 and DAPI (blue and green), and total ATF6 staining (green) was determined in 5 fields of view for each section (n=6 for each condition) using IMAGEJ software version 1.45s. Data are presented as the percentage of ATF6 and DAPI co-fluorescence to the total ATF6 fluorescence. Phosphorylation of Ser-51 of eiF2 α was determined by an AlphaScreen assay as per the manufacturer's instructions (PERKIN-ELMER). The Griess reagent method was performed according to the manufacturer's instructions (MOLECULAR PROBES) to assess the intracellular levels of nitric oxide. 5-(and -6-)-carboxy-2,7-dichlorofluorescein diacetate (DCFDA) assay was used to determine the intracellular levels of H2O2 as previously described (Sakon et al., 2003). Cells were treated with glucose or recombinant cytokines at the concentrations indicated in the figure legends, or with 5 μM thapsigargin (SIGMA-ALDRICH) or 10 μg/mL tunicamycin (SIGMA-ALDRICH) or 0.1-0.5 mM Palmitate (SIGMA-ALDRICH) for the times indicated in the legends. ROS was […] using the dihydroethidium (DHE) fluorescent cell-permeable probe (SIGMA-ALDRICH). MIN6N8 cells plated at 2×10^6/mL were incubated with 3 μM DHE and subsequently treated with DMSO (control), 50 ng/mL IL-23 for 30 minutes±[…] IL-22 at the same time or 30 minutes prior to IL-23.
To inhibit transcription factors the following specific inhibitors (and concentrations) were used:
MIN6N8 cells were exposed to a panel of cytokines to determine the effect of each cytokine on ER stress. ER stress was measured using the above-described method. Specifically, the cells were exposed to either a 24 hour treatment of any one of […] glucose (hi glucose), 10 μM H2O2, 0.5 mM palmitic acid or 50 ng/mL cytokines; or a 6 hour treatment with 10 μg/mL tunicamycin or 5 μM thapsigargin.
Experiments to assess ER and/or oxidative stress, and methods of qRT-PCT and/or quantifying gene expression were performed as described for Example 1. Xbp1 splicing is assessed by qRT-PCR, with normalization versus Gapdh, and expression presented as fold of vehicle-treated control cells.

MIP-2α: ER stress-inducing chemokine
Excluded Transcription Factors/Kinases: ERK, JNK, NFκB,; also recorded: STAT1, STAT3,; also recorded: STAT5
Required Transcription Factors/Kinases: None identified

IFN-γ: ER stress-inducing cytokine
Excluded Transcription Factors/Kinases: STAT1
Required Transcription Factors/Kinases: NFκB

IL-1β: ER stress-inducing cytokine
Excluded Transcription Factors/Kinases: ERK, JNK
Required Transcription Factors/Kinases: NFκB

IL-23: ER stress-inducing cytokine
Excluded Transcription Factors/Kinases: STAT1, STAT5
Required Transcription Factors/Kinases: STAT3

IL-17A: ER stress-inducing cytokine
Excluded Transcription Factors/Kinases: ERK

B1: IL-24: ER stress-inducing cytokine (protein, UniProt Q13007 52-206, looked up)
Interleukin-24: QEFHFGPCQVKGVVPQKLWEAFWAVKDTMQAQDNITSARLLQQEVLQNVSDAESCYLVHTLLEFYLKTVFKNYHNRTVEVRTLKSFSTLANNFVLIVSQLQPSQENEMFSIRDSAHRRFLLFRRAFKQLDVEAALTKALGEVDILLTWMQKFYKL
Excluded Transcription Factors/Kinases: STAT3
Required Transcription Factors/Kinases: STAT1

B2: IL-33: ER stress-inducing cytokine (protein, UniProt O95760 1-270, looked up)
Interleukin-33: MKPKMKYSTNKISTAKWKNTASKALCFKLGKSQQKAKEVCPMYFMKLRSGLMIKKEACYFRRETTKRPSLKTGRKHKRHLVLAACQQQSTVECFAFGISGVQKYTRALHDSSITGISPITEYLASLSTYNDQSITFALEDESYEIYVEDLKKDEKKDKVLLSYYESQHPSNESGDGVDGKMLMVTLSPTKDFWLHANNKEHSVELHKCEKPLPDQAFFVLHNMHSNCVSFECKTDPGVFIGVKDNHLALIKVDSSENLCTENILFKLSET
Excluded Transcription Factors/Kinases: ERK, JNK, STAT1,; also recorded: STAT3
Required Transcription Factors/Kinases: NFκB, STAT5^2
